Source: PubChem BioAssay AID720505 (Drosophila RNAi Screening Center, 2013)
Screen: 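Genes needed for store-operated calcium entry in fly cells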 (primary screen). System: Drosophila S2R+ cells. Reagents: long dsRNA against Drosophila genes. Treatment: thapsigargin (2 µM) in calcium-free buffer to empty internal stores, then 2 mM calcium added back. Read-out: 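Fluo-4 signal in 384-well plates read on a FLIPR after thapsigargin (2 µM, calcium-free) store depletion and 2 mM calcium add-back; unnormalised mean endpoint per well; screen run twice, selected wells retested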. Direction: calcium signal and retest calcium signal: higher = more calcium entry after store depletion. Active means: 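About 1500 genes called as lowering calcium entry, by varying amounts, judged against per-plate control wells with STIM1 as positive and Rho1 as negative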. Meaning of the calls: active = called as lowering calcium entry; inactive = not called.
The screen tested about 20,000 reagents; this is an unselected part of those with a known target gene and a result. In the full data, about 2,100 (10%) got an active call. 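Raw plate signals without normalisation; calls rest on control-based scores that were not deposited; replicate 2 separates called from uncalled poorly.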 Reagents against one gene are numbered here. Not given: the amount of reagent, the time to read-out.

no.	gene	dsRNA no.	calcium signal, replicate 1	calcium signal, replicate 2	retest calcium signal, replicate 1	retest calcium signal, replicate 2	Outcome
1	spdi	1	132	147			inactive
2	spdi	2	68	145			inactive
3	Ube3a	1	144	88.2			inactive
4	Tab2	1	113	109			inactive
5	Tap42	1	111	188			inactive
6	CG5863	1	115	220			inactive
7	RpL7	1	99.7	96			inactive
8	SA1	1	79.5	136			inactive
9	Rtnl1	1	74.1	169			inactive
10	Rtnl1	2	106	191			inactive
11	Rtnl1	3	91.8	150			inactive
12	Rtnl1	4	65	172			inactive
13	Neurochondrin	1	109	155			inactive
14	crol	1	113	91.3			inactive
15	crol	2	151	105			inactive
16	CG7639	1	159	206			inactive
17	Ir60b	1	114	138			inactive
18	Cul3	1	128	117			inactive
19	Cul3	2	108	108			inactive
20	CG13239	1	83.3	159			inactive
21	jvl	1	100	140			inactive
22	CG5768	1	232	257			inactive
23	CG13384	1	107	276			inactive
24	Npc2f	1	122	190			inactive
25	CG30378	1	126	144			inactive
26	hzg	1	101	129			inactive
27	spg	1	149	116			inactive
28	spg	2	150	155			inactive
29	frj	1	103	142			inactive
30	CG11980	1	178	125			inactive

Sorted by “calcium signal, replicate 1” (descending): 9 of the entries above.
gene	dsRNA no.	calcium signal, replicate 1	calcium signal, replicate 2	retest calcium signal, replicate 1	retest calcium signal, replicate 2	Outcome
Ube3a	1	144	88.2			inactive
CG5863	1	115	220			inactive
Tab2	1	113	109			inactive
Tap42	1	111	188			inactive
Rtnl1	2	106	191			inactive
RpL7	1	99.7	96			inactive
Rtnl1	3	91.8	150			inactive
SA1	1	79.5	136			inactive
Rtnl1	1	74.1	169			inactive

Continued:
no.	gene	dsRNA no.	calcium signal, replicate 1	calcium signal, replicate 2	retest calcium signal, replicate 1	retest calcium signal, replicate 2	Outcome
31	CG32485	1	117	120			inactive
32	galla-2	1	72.6	73.8	6250	82.7	inactive
33	galla-2	2	97.5	230			inactive
34	CG9330	1	117	122			inactive
35	smo	1	96.6	178			inactive
36	RpS17	1	33.3	76.9			active
37	CG11597	1	91.7	116			inactive
38	Tango1	1	112	305			inactive
39	CG3862	1	142	161			inactive
40	CG13720	1	60.5	69.6			inactive
41	cindr	1	117	172			inactive
42	cindr	2	179	158			inactive
43	CG15408	1	85.1	106			inactive
44	Vha100-2	1	146	299			inactive
45	RhoGAP102A	1	136	158			inactive
46	crim	1	108	82.8			inactive
47	CG30060	1	79.7	132			inactive
48	Nuak	1	135	118			inactive
49	Nuak	2	92.6	80.9			inactive
50	Nuak	3	120	91.2			inactive
51	CG11162	1	62.2	98.3			active
52	CG11162	2	94.5	123			inactive
53	CG12951	1	56.9	81.7			active
54	unpg	1	137	117			inactive
55	CG7309	1	86.8	131			inactive
56	CG32712	1	137	89.2			inactive
57	CG33469	1	102	178			inactive
58	CG5731	1	117	132			inactive
59	Cdc2rk	1	91.2	99.4			inactive
60	CG3618	1	108	95.4			inactive
61	CG32487	1	86.5	111			inactive
62	CG13334	1	127	186			inactive
63	CG11841	1	74.4	89.5			inactive
64	CG6470	1	154	135			inactive
65	LUBEL	1	161	113			inactive
66	CG33298	1	180	163			inactive
67	CG33298	2	102	117			inactive
68	gcm	1	220	151			inactive
69	CG30413	1	56.7	63.4			active
70	CG34461	1	65.3	59.4			inactive
71	CG31345	1	176	73.5			inactive
72	CG31345	2	203	76.4			inactive
73	CG33303	1	157	118			inactive
74	Hibch	1	54.8	109			active
75	CG15153	1	96	112			inactive
76	CG6191	1	178	141			inactive
77	CG6191	2	102	176			inactive
78	Best1	1	121	78.3	78.3	81	inactive
79	dgt4	1	131	125			inactive
80	flap	1	76.9	5708			inactive
81	flap	2	114	150			inactive
82	CG13046	1	100	149			inactive
83	CG8010	1	183	130			inactive
